In all, about 360,000 compounds went through this assay and about 10,000 (2.8%) were called active. The shares of active, inactive and inconclusive entries below differ from those in the screen. Calls come from the whole dose curve; as a rule, active = well fitted inhibition curve with a large enough effect; inconclusive = small, poorly fitted or top-dose-only effect; inactive = flat fitted curve, though single readings scatter. Potencies beside an inconclusive call are fits to weak or partial responses and may not hold up.
Molecular target: Serine/threonine-protein kinase PLK1 (Homo sapiens) (UniProt P53350)
Experiment: qHTS for Inhibitors of PLK1-PDB (polo-like kinase 1 - polo-box domain): Primary Screen; note: nearly all actives have a fitted effect of over 65% in size; for max response, negative = inhibition: series mostly up to about 57 µM
Conditions: Plk1 PBD binding of FITC phosphopeptide, fluorescence polarization
% is set by controls: 0 for no effect and ±100 for the full control effect; potency is the fitted concentration of half-maximal effect.

By UniProt entry, the sequences of proteins in these tests, tags left out.
UniProt P53350, whole entry, looked up: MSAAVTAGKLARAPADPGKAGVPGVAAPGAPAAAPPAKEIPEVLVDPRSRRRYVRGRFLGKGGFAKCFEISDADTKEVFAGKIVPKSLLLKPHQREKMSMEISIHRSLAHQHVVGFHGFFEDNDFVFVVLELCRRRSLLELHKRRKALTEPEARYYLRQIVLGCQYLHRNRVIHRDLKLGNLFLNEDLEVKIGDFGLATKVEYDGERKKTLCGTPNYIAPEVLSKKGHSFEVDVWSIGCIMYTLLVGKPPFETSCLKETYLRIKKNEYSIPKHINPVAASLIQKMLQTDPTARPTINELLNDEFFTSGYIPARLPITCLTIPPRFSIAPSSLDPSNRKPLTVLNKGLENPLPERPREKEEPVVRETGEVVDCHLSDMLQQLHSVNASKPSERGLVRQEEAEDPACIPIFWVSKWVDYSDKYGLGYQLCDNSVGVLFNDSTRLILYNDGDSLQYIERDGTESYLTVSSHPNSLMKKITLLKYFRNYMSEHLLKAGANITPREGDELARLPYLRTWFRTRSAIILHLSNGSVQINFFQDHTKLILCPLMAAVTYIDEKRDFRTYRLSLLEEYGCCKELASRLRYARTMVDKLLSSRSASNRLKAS

Structure (SMILES) | Potency | max response, negative = inhibition
O=C1CN(C(=O)COC(=O)Cc2ccccc2)c2ccccc2N1 | active: 29.9 µM | 
CCOC(=O)C1(c2ccccc2)CCN(CCc2ccc(NC(=O)CCC(=O)O)cc2)CC1 |  | inactive: -4.41%
CC/C(=N\Nc1ccccc1)c1c(O)[nH]c(=O)[nH]c1=O |  | inactive: 7.09%
O=C(Cc1ccc(Br)cc1)N1CCN(Cc2ccccc2)CC1 |  | inactive: -9.72%
Cc1ccc(N2C(=O)/C(=C/N3CCN(C(=O)c4ccco4)CC3)C(=O)NC2=S)cc1C | active: 23.8 µM | 
COC(=O)C(C#N)C(c1cccnc1)c1c(C)[nH][nH]c1=O (stereo unspecified) | inconclusive: 29.9 µM [inhibitor, single point] | 
NC(=O)c1ccc(N=Cc2c(O)n(Cc3ccco3)c(=O)[nH]c2=O)cc1 | inconclusive: 29.9 µM [inhibitor, partial curve, poor fit] | 
COc1ccc(CN2C(=O)NC(=O)/C(=C/c3ccc(OC)c(OC)c3OC)C2=O)cc1 | active: 8.44 µM | 
CCCCCN1C(=O)c2ccccc2[C@@]2(C(=O)OCC)Cc3cc(Cl)ccc3[C@@H]12 | inconclusive: 23.8 µM [inhibitor, single point] | 
CN1C(=O)C(=Cc2ccccc2OCc2ccccc2Cl)C(=O)N(C)C1=O | active: 2.99 µM | 
O=C(O)Cn1cc(C=C2C(=O)NC(=O)NC2=O)c2ccccc21 | inconclusive: 23.8 µM [inhibitor, partial curve] | 
O=C1NC(=O)N(c2ccc(F)cc2)C(=O)/C1=C/c1ccsc1 | active: 6.7 µM | 
COc1cccc(C2CC3C(=O)C=CC2N3Cc2ccccc2)c1 (stereo unspecified) |  | inactive: -18.5%
Cn1ccnc1P(=S)(c1nccn1C)N1CCOCC1 | active: 26.7 µM | 
C=CCN1C(=O)NC(=O)/C(=C/c2cnc(SC)nc2)C1=O | active: 10.6 µM | 
O=C1NC(=O)N(c2ccccc2)C(=O)/C1=C\c1ccccc1[N+](=O)[O-] | inconclusive: 5.32 µM [inhibitor, full curve] | 
COC(=O)c1c(NC(=O)C2CC=CCC2C(=O)O)sc2c1CCCCC2 (stereo unspecified) | inconclusive: 26.7 µM [inhibitor, partial curve] | 
COc1ccc(N2C(=O)/C(=C/c3cccs3)C(=O)NC2=S)cc1 | active: 2.12 µM | 
O=C1C(Cl)=CC(=Nc2ccc(O)cc2)C=C1Cl | active: 26.7 µM | 
CC(C)[N+](C)(CCC(C(N)=O)(c1ccccc1)c1ccccc1)C(C)C | inconclusive: 3.36 µM [inhibitor, full curve] | 
CC1=C[C@@H]2c3cccc4[nH]cc(c34)C[C@H]2N(C)C1 | inconclusive: 26.7 µM [inhibitor, single point] | 
COc1ccc(Cl)cc1NC(=O)CCn1c(=O)oc2ccccc21 | inconclusive: 37.7 µM [inhibitor, single point] | 

Structure (SMILES) | Potency | max response, negative = inhibition
O=[N+]([O-])c1ccc(NCc2ccccc2)c2nonc12 | active: 0.844 µM | 
CN1C2CCC1/C(=C/c1ccccn1)C(=O)/C2=C\c1ccccn1 | active: 26.7 µM | 
CN1CCN(c2cc(N3CCCC3)c([N+](=O)[O-])cc2F)CC1 | inconclusive: 29.9 µM [inhibitor, single point] | 
CN1C(=O)C(=Cc2ccc(Sc3ccccc3)o2)C(=O)N(C)C1=S | active: 2.67 µM | 
COC(=O)C1=Nc2ccccc2/C1=C\c1c(O)n(-c2ccc(OC)cc2)c(=O)[nH]c1=O | active: 3.36 µM | 
O=C(O)CCn1cc(C=C2C(=O)NC(=O)NC2=O)c(-c2cc3ccccc3oc2=O)n1 | active: 15 µM | 
Oc1c(Br)cc(-c2ccccc2)cc1Br | inconclusive: 37.7 µM [inhibitor, single point] | 
Cc1cc(OCC(=O)N2CCN(CC(=O)N3CCOCC3)CC2)c(C(C)C)cc1Cl |  | inactive: -13.7%
CNCCc1c[nH]c2ccccc12 |  | inactive: -0.0509%
CCN(CC)P(=S)(c1c(C)nc2ccccn12)c1c(C)nc2ccccn12 | active: 5.32 µM | 
Cc1cc(C=C2C(=O)NC(=O)NC2=O)c(C)n1-c1ccncc1 | inconclusive: 21.2 µM [inhibitor, partial curve] | 
Nc1ccc2nonc2c1[N+](=O)[O-] | active: 18.9 µM | 
CCN1C(=O)C(=Cc2c(C)n(CC(=O)NCC3CCCO3)c3ccccc23)C(=O)N(CC)C1=S (stereo unspecified) | active: 1.06 µM | 
CCn1c(=S)sc2c(=O)[nH]c(SCC(=O)Nc3cc(OC)ccc3OC)nc21 | inconclusive: 29.9 µM [inhibitor, single point] | 
CCc1ccc(N2C(=O)NC(=O)/C(=C\C=C\c3ccco3)C2=O)cc1 | active: 1.34 µM | 
C=CCOc1ccc(CC2C(=O)N(C)C(=O)N(C)C2=O)cc1 | inconclusive: 21.2 µM [inhibitor, partial curve, poor fit] | 
O=C(CCN1CCN(CCO)CC1)N1c2ccccc2Sc2ccc(C(F)(F)F)cc21 | active: 26.7 µM | 
Cc1cccc(N2C(=O)/C(=C/N3CCN(C(=O)c4ccco4)CC3)C(=O)NC2=S)c1 | inconclusive: 18.9 µM [inhibitor, partial curve] | 
COc1ccc(CC2C(=O)N(C)C(=O)N(C)C2=O)c(OC)c1 | inconclusive: 33.6 µM [inhibitor, partial curve] | 
O=C1NC(c2cccnc2)Nc2sc3c(c21)CCCC3 (stereo unspecified) | inconclusive: 26.7 µM [inhibitor, single point] | 
O=C1NC(=O)C(=Cc2ccco2)C(=O)N1 | active: 4.74 µM | 
O=C1NC(=O)C(=Cc2c(Cl)cccc2Cl)C(=O)N1 | active: 4.74 µM | 

Grouped by structure: the entries above containing an aryl thioether with sulfur outside any ring.
Structure (SMILES) | Potency | max response, negative = inhibition
C=CCN1C(=O)NC(=O)/C(=C/c2cnc(SC)nc2)C1=O | active: 10.6 µM | 
CN1C(=O)C(=Cc2ccc(Sc3ccccc3)o2)C(=O)N(C)C1=S | active: 2.67 µM | 
CCn1c(=S)sc2c(=O)[nH]c(SCC(=O)Nc3cc(OC)ccc3OC)nc21 | inconclusive: 29.9 µM [inhibitor, single point] | 

Following part

Structure (SMILES) | Potency | max response, negative = inhibition
C1=CC(Cc2cncs2)c2ccccc21 (stereo unspecified) |  | inactive: -20.4%
COC(=O)C1=C(c2ccc(Cl)c(C(F)(F)F)c2)C[C@@H]2CC[C@H]1N2C |  | inactive: -11.2%
Cc1ccc(N2C(=O)/C(=C/c3ccc(CN(CCC#N)S(C)(=O)=O)o3)C(=O)NC2=S)cc1 | active: 5.97 µM | 
O=C(O)c1ccccc1SSc1ccccc1C(=O)O | active: 11.9 µM | 
NC(=O)CSP(=O)(c1ccccc1)c1ccccc1 | inconclusive: 25.1 µM [inhibitor, partial curve] | 
CC1=Nc2ccccc2/C1=C/c1c(O)n(C)c(=O)[nH]c1=O |  | inconclusive: -33.1% [inhibitor]
CC(C)c1ccc(N2C(=O)NC(=O)/C(=C/c3cnc(-c4ccccc4)nc3)C2=O)cc1 | active: 11.9 µM | 
Cc1cc(OC(C)C(=O)NCc2cccnc2)c2c3c(c(=O)oc2c1)CCC3 (stereo unspecified) | inconclusive: 18.9 µM [inhibitor, single point] | 
CCOc1ccccc1N1C(=O)NC(=O)/C(=C/c2ccc3c4c(cccc24)CC3)C1=O | active: 6.7 µM | 
C=CCc1cc(C=C2C(=O)NC(=O)NC2=O)cc(OC)c1OCc1ccc(C(=O)O)cc1 | active: 11.9 µM | 
CN1C(=O)C(=Cc2cn(CC(=O)N3CCCC3)c3ccccc23)C(=O)N(C)C1=O | active: 26.7 µM | 
CCC(C)N1C(=O)NC(=O)C2(Cc3cc(C)ccc3N(C)C2)C1=O (stereo unspecified) | inconclusive: 21.2 µM [inhibitor, partial curve] | 
O=c1[nH]c(=S)[nH]c(O)c1N=Nc1ccc2c(c1)OCO2 |  | inactive: 16.4%
O=c1nc(/C=C/c2ccc(Cl)cc2Cl)cc(C(F)(F)F)[nH]1 | active: 26.7 µM | 
C#CC[N+]1(C)[C@@H]2CC(OC(=O)C(CO)c3ccccc3)C[C@H]1C(O)C2 (stereo partly specified) |  | inactive: -18.3%
CC(=O)OC1C2CCC1C(N1CCCC1)CC2 (stereo unspecified) | inconclusive: 21.2 µM [inhibitor, partial curve] | 
O=C1NC(=O)N(Cc2ccco2)C(=O)/C1=C/c1ccc(-c2cccc([N+](=O)[O-])c2)o1 | active: 0.423 µM | 
CCOc1ccc(N2C(=O)NC(=O)/C(=C\c3ccc(N4CCOCC4)cc3C)C2=O)cc1 | active: 6.7 µM | 
COc1ccccc1C=C1C(=O)NC(=S)NC1=O | active: 23.8 µM | 
COc1ccc(CCn2c(NN=C3CCCCC3)nc3c2c(=O)[nH]c(=O)n3C)cc1 | inconclusive: 16.8 µM [inhibitor, partial curve] | 
COc1ccc(CN2C(=O)NC(=O)/C(=C/c3ccc([N+](=O)[O-])s3)C2=O)cc1 | active: 1.89 µM | 
Cc1ccc(OC(=O)c2ccc(Br)o2)cc1 | inconclusive: 4.23 µM [inhibitor, full curve] | 

Laid out differently: three of the compounds above
Structure (SMILES),Potency,"max response, negative = inhibition"
O=c1[nH]c(=S)[nH]c(O)c1N=Nc1ccc2c(c1)OCO2,,inactive: 16.4%
O=c1nc(/C=C/c2ccc(Cl)cc2Cl)cc(C(F)(F)F)[nH]1,active: 26.7 µM,
C#CC[N+]1(C)[C@@H]2CC(OC(=O)C(CO)c3ccccc3)C[C@H]1C(O)C2 (stereo partly specified),,inactive: -18.3%

Remaining list, next part:

Structure (SMILES) | Potency | max response, negative = inhibition
COc1cc(N2CCOCC2)ccc1/C=C1\C(=O)NC(=O)N(Cc2cccs2)C1=O | inconclusive: 0.947 µM [inhibitor, full curve, poor fit] | 
CCOC(=O)[C@]12Cc3cc4ccccc4cc3[C@H]1N(Cc1ccccc1)C(=O)c1ccccc12 | active: 11.9 µM | 
COC(=O)C1=C(c2ccc(F)cc2F)C[C@@H]2CC[C@H]1N2C(=O)NC1CCCCC1 |  | inactive: 3.32%
CCOP(=S)(OCC)SCSP(=S)(OCC)OCC | inconclusive: 26.7 µM [inhibitor, partial curve] | 
CCCCN1C(=O)C(C2c3ccccc3C(=O)N2Cc2ccccc2)C(=O)NC1=S (stereo unspecified) | inconclusive: 21.2 µM [inhibitor, single point] | 
Cn1c(O)c(C=NCc2cccs2)c(=O)n(C)c1=O |  | inactive: -10.4%
CCCCN1C(=O)/C(=C\c2ccco2)C(=O)N(CCc2ccccc2)C1=O | active: 0.844 µM | 
N#CC(C#N)=Cc1ccc(-c2ccccc2F)o1 | inconclusive: 7.52 µM [inhibitor, partial curve] | 
Nc1c2c(nc3ccccc13)CCN(Cc1ccccc1)C2 |  | inconclusive: -33.6% [inhibitor]
O=C(CCc1ccccc1)N1Cc2cc(N3CCCCC3)ccc2-n2nncc2C1 |  | inactive: -13.5%
CCOc1cc(C=C2C(=O)NC(=O)NC2=O)ccc1OS(=O)(=O)c1ccccc1 | active: 3.36 µM | 
COc1ccccc1OCC#CCN1CCOCC1 |  | inactive: -1.97%
CCOc1cccc(N2C(=O)/C(=C/c3ccco3)C(=O)NC2=S)c1 | active: 11.9 µM | 
O=C1NC(=O)C(=Cc2csc3ccccc23)C(=O)N1 | active: 2.12 µM | 
CN1C(=O)C(=Cc2ccccc2OS(=O)(=O)c2ccccc2)C(=O)N(C)C1=O | active: 5.32 µM | 
CC(C)=CCOc1c2occc2cc2ccc(=O)oc12 | active: 26.7 µM | 
CC1(CCl)CN1S(=O)(=O)c1ccccc1 (stereo unspecified) | inconclusive: 29.9 µM [inhibitor, single point] | 
COC(=O)C1=C(c2ccc(OC(F)(F)F)cc2)C[C@@H]2CC[C@H]1N2C(=O)N1CCCCC1 |  | inactive: -15.2%
CN1C(=O)NC(=O)/C(=C\C=C\c2ccccc2[N+](=O)[O-])C1=O | active: 1.19 µM | 
O=c1[nH]c(=S)[nH]c(O)c1N=Nc1cc(S(=O)(=O)Nc2ccc(Cl)cc2)ccc1Cl | active: 29.9 µM | 

Source: PubChem BioAssay AID720504 (National Center for Advancing Translational Sciences (NCATS), 2013)
